Experimental data: paper PMC9112550, “Optimization of the antimicrobial peptide Bac7 by deep mutational scanning” (BMC Biology, 2022)

System: E. coli TOP10
Assay: Deep mutational scanning, epPCR (randomly mutagenized) Bac7_1-23 library, intracellular self-screening with NGS
Assay type: cell-based
Conditions: epPCR library, 601,551 variants; rank 1 = most active; qualitative measure

“RKLRPRPPRLPRPRPRPLPFLRP [epPCR library peptide ID 94428]” was tested, and the “Rank by antimicrobial activity” value was 2.
